# These are yes or no findings as the source states them, for the method shown. In cells and extracts the contact can be indirect. A result given as binding can be weak or reduced; the word gives no strength.
# Experiments:
# [1] = biological target: taxol-stabilized microtubules; experiment: co-sedimentation; as a1, in the presence or absence of 2 uM importin α, 2 uM importin β and 5 uM RanGTP (Fig 1A); only the target purified
# [2] = biological target: taxol-stabilized microtubules; experiment: co-sedimentation; HeLa nuclear extract (1 mg/ml in CSF-XB) incubated 15 min at RT with 2 uM taxol-stabilized microtubules, centrifuged at 100,000 g; MAPs eluted from the pellet with 500 mM NaCl and immunoblotted (Fig 1A), or pellets immunoblotted (Fig S1A); only the target purified
binder,measurement,setting,value
"Endogenous human RECQL4 (RecQ-like helicase 4) in HeLa nuclear extract (protein, UniProt O94761 1-1208) MERLRDVRERLQAWERAFRRQRGRRPSQDDVEAAPEETRALYREYRTLKRTTGQAGGGLRSSESLPAAAEEAPEPRCWGPHLNRAATKSPQSTPGRSRQGSVPDYGQRLKANLKGTLQAGPALGRRPWPLGRASSKASTPKPPGTGPVPSFAEKVSDEPPQLPEPQPRPGRLQHLQASLSQRLGSLDPGWLQRCHSEVPDFLGAPKACRPDLGSEESQLLIPGESAVLGPGAGSQGPEASAFQEVSIRVGSPQPSSSGGEKRRWNEEPWESPAQVQQESSQAGPPSEGAGAVAVEEDPPGEPVQAQPPQPCSSPSNPRYHGLSPSSQARAGKAEGTAPLHIFPRLARHDRGNYVRLNMKQKHYVRGRALRSRLLRKQAWKQKWRKKGECFGGGGATVTTKESCFLNEQFDHWAAQCPRPASEEDTDAVGPEPLVPSPQPVPEVPSLDPTVLPLYSLGPSGQLAETPAEVFQALEQLGHQAFRPGQERAVMRILSGISTLLVLPTGAGKSLCYQLPALLYSRRSPCLTLVVSPLLSLMDDQVSGLPPCLKAACIHSGMTRKQRESVLQKIRAAQVHVLMLTPEALVGAGGLPPAAQLPPVAFACIDEAHCLSQWSHNFRPCYLRVCKVLRERMGVHCFLGLTATATRRTASDVAQHLAVAEEPDLHGPAPVPTNLHLSVSMDRDTDQALLTLLQGKRFQNLDSIIIYCNRREDTERIAALLRTCLHAAWVPGSGGRAPKTTAEAYHAGMCSRERRRVQRAFMQGQLRVVVATVAFGMGLDRPDVRAVLHLGLPPSFESYVQAVGRAGRDGQPAHCHLFLQPQGEDLRELRRHVHADSTDFLAVKRLVQRVFPACTCTCTRPPSEQEGAVGGERPVPKYPPQEAEQLSHQAAPGPRRVCMGHERALPIQLTVQALDMPEEAIETLLCYLELHPHHWLELLATTYTHCRLNCPGGPAQLQALAHRCPPLAVCLAQQLPEDPGQGSSSVEFDMVKLVDSMGWELASVRRALCQLQWDHEPRTGVRRGTGVLVEFSELAFHLRSPGDLTAEEKDQICDFLYGRVQARERQALARLRRTFQAFHSVAFPSCGPCLEQQDEERSTRLKDLLGRYFEEEEGQEPGGMEDAQGPEPGQARLQDWEDQVRCDIRQFLSLRPEEKFSSRAVARIFHGIGSPCYPAQVYGQDRRFWRKYLHLSFHALVGLATEELLQVAR",binding,[1],binds
same,binding,[2],binds
